This experiment has as its target ZNF274, full length, HA-tagged (ZNF274-HA); a Flag-tagged copy was coexpressed for the co-IP (human) (UniProt Q96GC6). Nature of the experiment: proximity labelling; ProtA-TurboID targeted with an anti-HA antibody to ZNF274-HA in fixed, permeabilized nuclei of doxycycline-induced HEK293T cells; biotinylation 10 min at 37°C; streptavidin enrichment and quantitative mass spectrometry; n = 3 replicates per condition.

Chains of the proteins cited; added tags and fusions are not shown.
UniProt Q96GC6: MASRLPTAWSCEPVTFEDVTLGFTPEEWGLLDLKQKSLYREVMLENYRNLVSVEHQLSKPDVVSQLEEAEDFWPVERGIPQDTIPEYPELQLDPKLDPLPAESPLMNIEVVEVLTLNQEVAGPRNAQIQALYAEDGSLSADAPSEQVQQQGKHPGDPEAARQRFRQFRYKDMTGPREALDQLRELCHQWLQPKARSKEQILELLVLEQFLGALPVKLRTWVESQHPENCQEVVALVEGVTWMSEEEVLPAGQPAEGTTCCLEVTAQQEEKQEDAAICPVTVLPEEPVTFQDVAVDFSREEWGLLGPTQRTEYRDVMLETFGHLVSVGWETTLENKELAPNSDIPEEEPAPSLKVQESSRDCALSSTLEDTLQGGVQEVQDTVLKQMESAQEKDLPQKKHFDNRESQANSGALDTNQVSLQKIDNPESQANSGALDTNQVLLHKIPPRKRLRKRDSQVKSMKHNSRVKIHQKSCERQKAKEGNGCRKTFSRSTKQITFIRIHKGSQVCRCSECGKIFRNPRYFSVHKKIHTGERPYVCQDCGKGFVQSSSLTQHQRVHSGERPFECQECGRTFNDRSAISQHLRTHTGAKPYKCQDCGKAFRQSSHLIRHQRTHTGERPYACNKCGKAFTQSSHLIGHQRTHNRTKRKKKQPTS
UniProt Q13263: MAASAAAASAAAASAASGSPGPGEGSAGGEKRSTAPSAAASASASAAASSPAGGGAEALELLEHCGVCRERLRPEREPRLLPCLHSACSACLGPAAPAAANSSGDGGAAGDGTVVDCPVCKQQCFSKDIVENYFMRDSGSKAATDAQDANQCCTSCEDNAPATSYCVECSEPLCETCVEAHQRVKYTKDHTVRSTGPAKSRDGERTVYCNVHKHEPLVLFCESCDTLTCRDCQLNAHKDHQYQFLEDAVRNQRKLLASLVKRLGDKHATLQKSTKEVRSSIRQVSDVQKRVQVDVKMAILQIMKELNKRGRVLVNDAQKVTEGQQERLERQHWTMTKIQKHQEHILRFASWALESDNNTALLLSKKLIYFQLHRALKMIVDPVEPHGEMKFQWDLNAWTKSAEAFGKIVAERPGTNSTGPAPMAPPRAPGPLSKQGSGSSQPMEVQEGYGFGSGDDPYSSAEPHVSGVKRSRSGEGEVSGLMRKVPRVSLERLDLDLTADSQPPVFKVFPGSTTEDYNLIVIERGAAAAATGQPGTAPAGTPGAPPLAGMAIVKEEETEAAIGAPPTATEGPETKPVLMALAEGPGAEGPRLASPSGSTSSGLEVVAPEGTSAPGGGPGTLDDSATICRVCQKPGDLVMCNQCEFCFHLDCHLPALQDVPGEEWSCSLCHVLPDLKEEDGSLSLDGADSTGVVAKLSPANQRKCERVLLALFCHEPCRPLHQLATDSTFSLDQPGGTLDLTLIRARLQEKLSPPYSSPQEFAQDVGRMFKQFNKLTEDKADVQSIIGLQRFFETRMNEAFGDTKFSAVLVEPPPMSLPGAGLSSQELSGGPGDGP
UniProt Q9UPN9: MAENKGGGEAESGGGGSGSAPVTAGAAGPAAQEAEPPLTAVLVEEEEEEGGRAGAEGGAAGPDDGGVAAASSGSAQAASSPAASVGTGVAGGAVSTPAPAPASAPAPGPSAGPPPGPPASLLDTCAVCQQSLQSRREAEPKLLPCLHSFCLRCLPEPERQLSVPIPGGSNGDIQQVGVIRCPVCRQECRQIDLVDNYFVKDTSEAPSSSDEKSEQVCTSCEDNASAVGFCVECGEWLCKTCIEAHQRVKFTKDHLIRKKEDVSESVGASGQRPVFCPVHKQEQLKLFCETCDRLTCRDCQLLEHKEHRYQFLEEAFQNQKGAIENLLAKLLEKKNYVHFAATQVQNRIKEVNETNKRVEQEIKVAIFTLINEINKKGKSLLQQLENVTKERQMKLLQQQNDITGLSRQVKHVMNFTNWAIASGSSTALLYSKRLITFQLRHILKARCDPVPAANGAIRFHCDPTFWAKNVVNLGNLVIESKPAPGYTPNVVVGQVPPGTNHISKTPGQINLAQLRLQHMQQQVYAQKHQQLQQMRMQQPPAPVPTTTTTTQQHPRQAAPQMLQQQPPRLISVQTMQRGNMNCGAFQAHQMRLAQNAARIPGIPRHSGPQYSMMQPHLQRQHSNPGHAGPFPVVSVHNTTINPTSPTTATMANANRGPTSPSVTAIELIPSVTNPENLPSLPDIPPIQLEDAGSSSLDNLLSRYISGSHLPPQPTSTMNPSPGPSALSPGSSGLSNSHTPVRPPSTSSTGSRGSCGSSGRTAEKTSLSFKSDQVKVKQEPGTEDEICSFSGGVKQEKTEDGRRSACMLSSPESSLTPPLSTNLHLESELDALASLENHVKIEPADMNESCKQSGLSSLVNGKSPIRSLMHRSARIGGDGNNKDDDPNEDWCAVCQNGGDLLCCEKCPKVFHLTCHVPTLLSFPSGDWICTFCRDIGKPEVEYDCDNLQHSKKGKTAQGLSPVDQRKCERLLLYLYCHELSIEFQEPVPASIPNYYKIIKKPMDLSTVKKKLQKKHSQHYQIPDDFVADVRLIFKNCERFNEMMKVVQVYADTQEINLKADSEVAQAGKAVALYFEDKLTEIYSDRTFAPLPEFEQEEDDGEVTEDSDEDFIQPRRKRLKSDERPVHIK
UniProt P17028: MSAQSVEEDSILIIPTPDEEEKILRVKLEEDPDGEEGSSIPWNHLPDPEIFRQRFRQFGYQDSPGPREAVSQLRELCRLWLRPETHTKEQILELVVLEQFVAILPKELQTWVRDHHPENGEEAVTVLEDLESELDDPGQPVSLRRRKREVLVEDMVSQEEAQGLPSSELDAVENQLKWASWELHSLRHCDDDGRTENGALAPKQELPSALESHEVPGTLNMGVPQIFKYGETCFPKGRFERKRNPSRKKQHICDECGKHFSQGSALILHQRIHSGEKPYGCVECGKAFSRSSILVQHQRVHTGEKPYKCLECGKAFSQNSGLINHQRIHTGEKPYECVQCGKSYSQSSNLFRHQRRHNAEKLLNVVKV

No constants are given. Whether binding was seen depends on the method and setting. Binding seen in cells or lysates may run through a third protein. These calls come from enrichment with a bait or labelling near it, and not all partners need be listed.

Turning to KAP1/TRIM28 (from UniProt Q13263 1-835), the binding entry is listed as “binds”. Take TRIM33 (from UniProt Q9UPN9 1-1127): the binding entry is reported as “binds”. In the case of ZNF24 (from UniProt P17028 1-368), the binding result was “binds”.

B1: TRIM24 (protein, UniProt O15164 1-1050)
chain: MEVAVEKAVAAAAAASAAASGGPSAAPSGENEAESRQGPDSERGGEAARLNLLDTCAVCHQNIQSRAPKLLPCLHSFCQRCLPAPQRYLMLPAPMLGSAETPPPVPAPGSPVSGSSPFATQVGVIRCPVCSQECAERHIIDNFFVKDTTEVPSSTVEKSNQVCTSCEDNAEANGFCVECVEWLCKTCIRAHQRVKFTKDHTVRQKEEVSPEAVGVTSQRPVFCPFHKKEQLKLYCETCDKLTCRDCQLLEHKEHRYQFIEEAFQNQKVIIDTLITKLMEKTKYIKFTGNQIQNRIIEVNQNQKQVEQDIKVAIFTLMVEINKKGKALLHQLESLAKDHRMKLMQQQQEVAGLSKQLEHVMHFSKWAVSSGSSTALLYSKRLITYRLRHLLRARCDASPVTNNTIQFHCDPSFWAQNIINLGSLVIEDKESQPQMPKQNPVVEQNSQPPSGLSSNQLSKFPTQISLAQLRLQHMQQQVMAQRQQVQRRPAPVGLPNPRMQGPIQQPSISHQQPPPRLINFQNHSPKPNGPVLPPHPQQLRYPPNQNIPRQAIKPNPLQMAFLAQQAIKQWQISSGQGTPSTTNSTSSTPSSPTITSAAGYDGKAFGSPMIDLSSPVGGSYNLPSLPDIDCSSTIMLDNIVRKDTNIDHGQPRPPSNRTVQSPNSSVPSPGLAGPVTMTSVHPPIRSPSASSVGSRGSSGSSSKPAGADSTHKVPVVMLEPIRIKQENSGPPENYDFPVVIVKQESDEESRPQNANYPRSILTSLLLNSSQSSTSEETVLRSDAPDSTGDQPGLHQDNSSNGKSEWLDPSQKSPLHVGETRKEDDPNEDWCAVCQNGGELLCCEKCPKVFHLSCHVPTLTNFPSGEWICTFCRDLSKPEVEYDCDAPSHNSEKKKTEGLVKLTPIDKRKCERLLLFLYCHEMSLAFQDPVPLTVPDYYKIIKNPMDLSTIKKRLQEDYSMYSKPEDFVADFRLIFQNCAEFNEPDSEVANAGIKLENYFEELLKNLYPEKRFPKPEFRNESEDNKFSDDSDDDFVQPRKKRLKSIEERQLLK
On to B1, for which the binding entry is “binds”.
